Measured values as given in PMC4210263.
Results are given in words; binding and its absence hold for the method and conditions named. Binding seen in cells or lysates may run through a third protein. These calls come from enrichment with a bait or labelling near it, and not all partners need be listed.

The chains behind the UniProt entries cited, without tags or fusion partners. Residues count along the entry.
UniProt P16858: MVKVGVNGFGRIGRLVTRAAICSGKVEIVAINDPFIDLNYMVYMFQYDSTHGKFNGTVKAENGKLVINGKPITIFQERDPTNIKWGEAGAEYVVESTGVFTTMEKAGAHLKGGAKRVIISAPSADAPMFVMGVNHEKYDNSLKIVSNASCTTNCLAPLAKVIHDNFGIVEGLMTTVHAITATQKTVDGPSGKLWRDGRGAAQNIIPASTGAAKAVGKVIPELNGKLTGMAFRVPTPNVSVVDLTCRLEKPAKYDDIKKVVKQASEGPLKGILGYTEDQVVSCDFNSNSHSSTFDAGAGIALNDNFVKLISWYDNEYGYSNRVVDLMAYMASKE
UniProt P68373: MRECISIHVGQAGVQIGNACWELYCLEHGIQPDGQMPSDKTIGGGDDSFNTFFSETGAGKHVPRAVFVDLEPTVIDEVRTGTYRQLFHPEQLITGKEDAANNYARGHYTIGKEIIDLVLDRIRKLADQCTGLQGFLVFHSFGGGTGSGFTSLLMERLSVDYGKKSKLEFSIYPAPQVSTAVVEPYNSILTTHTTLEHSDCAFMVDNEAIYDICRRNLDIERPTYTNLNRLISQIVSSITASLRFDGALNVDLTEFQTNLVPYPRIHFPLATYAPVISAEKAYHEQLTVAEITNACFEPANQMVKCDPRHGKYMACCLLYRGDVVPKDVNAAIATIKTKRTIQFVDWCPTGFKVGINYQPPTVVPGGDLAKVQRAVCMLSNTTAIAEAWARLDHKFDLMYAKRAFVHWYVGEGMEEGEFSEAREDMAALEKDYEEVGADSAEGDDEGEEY
UniProt Q922F4: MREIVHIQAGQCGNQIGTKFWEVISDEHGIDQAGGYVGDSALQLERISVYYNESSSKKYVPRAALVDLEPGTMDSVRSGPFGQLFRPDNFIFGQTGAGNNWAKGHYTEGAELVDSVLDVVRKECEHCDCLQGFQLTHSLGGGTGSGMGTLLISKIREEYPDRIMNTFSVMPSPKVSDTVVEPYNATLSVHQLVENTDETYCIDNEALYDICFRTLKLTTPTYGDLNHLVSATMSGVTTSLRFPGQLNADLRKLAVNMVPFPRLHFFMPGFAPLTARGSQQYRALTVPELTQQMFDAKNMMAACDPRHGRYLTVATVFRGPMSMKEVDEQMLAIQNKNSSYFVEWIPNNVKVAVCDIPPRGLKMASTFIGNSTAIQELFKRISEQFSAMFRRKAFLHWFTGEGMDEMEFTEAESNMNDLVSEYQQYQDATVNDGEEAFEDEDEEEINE
UniProt P68372: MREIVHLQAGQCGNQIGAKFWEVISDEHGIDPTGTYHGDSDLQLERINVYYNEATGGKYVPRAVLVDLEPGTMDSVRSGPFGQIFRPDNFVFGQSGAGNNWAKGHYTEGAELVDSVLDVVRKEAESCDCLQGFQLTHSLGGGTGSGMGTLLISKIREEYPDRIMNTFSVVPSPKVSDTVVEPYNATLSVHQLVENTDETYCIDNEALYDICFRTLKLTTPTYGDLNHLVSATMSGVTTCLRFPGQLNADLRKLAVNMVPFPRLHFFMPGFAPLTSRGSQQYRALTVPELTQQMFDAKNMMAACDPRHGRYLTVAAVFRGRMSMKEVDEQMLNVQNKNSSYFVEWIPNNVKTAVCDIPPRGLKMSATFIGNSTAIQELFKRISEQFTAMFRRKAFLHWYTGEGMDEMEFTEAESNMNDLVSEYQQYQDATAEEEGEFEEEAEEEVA
UniProt P63038, residues 27-573: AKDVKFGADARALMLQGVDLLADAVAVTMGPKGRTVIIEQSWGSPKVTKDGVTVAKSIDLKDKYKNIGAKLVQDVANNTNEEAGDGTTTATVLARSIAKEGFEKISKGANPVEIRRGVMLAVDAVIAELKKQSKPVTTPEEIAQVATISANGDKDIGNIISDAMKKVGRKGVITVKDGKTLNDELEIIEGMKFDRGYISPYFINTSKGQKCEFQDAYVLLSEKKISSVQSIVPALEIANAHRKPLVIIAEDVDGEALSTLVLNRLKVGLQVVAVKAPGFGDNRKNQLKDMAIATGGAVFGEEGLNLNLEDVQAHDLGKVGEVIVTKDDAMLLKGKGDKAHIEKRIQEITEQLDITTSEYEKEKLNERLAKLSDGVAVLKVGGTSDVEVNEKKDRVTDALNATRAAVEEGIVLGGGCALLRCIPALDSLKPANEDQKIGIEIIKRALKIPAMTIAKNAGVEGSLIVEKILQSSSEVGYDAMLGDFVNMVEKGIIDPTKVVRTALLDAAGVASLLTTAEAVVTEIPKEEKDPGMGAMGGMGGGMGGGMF
UniProt Q9CPQ1: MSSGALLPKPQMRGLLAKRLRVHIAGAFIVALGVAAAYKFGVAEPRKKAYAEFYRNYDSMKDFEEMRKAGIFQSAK
UniProt Q02566: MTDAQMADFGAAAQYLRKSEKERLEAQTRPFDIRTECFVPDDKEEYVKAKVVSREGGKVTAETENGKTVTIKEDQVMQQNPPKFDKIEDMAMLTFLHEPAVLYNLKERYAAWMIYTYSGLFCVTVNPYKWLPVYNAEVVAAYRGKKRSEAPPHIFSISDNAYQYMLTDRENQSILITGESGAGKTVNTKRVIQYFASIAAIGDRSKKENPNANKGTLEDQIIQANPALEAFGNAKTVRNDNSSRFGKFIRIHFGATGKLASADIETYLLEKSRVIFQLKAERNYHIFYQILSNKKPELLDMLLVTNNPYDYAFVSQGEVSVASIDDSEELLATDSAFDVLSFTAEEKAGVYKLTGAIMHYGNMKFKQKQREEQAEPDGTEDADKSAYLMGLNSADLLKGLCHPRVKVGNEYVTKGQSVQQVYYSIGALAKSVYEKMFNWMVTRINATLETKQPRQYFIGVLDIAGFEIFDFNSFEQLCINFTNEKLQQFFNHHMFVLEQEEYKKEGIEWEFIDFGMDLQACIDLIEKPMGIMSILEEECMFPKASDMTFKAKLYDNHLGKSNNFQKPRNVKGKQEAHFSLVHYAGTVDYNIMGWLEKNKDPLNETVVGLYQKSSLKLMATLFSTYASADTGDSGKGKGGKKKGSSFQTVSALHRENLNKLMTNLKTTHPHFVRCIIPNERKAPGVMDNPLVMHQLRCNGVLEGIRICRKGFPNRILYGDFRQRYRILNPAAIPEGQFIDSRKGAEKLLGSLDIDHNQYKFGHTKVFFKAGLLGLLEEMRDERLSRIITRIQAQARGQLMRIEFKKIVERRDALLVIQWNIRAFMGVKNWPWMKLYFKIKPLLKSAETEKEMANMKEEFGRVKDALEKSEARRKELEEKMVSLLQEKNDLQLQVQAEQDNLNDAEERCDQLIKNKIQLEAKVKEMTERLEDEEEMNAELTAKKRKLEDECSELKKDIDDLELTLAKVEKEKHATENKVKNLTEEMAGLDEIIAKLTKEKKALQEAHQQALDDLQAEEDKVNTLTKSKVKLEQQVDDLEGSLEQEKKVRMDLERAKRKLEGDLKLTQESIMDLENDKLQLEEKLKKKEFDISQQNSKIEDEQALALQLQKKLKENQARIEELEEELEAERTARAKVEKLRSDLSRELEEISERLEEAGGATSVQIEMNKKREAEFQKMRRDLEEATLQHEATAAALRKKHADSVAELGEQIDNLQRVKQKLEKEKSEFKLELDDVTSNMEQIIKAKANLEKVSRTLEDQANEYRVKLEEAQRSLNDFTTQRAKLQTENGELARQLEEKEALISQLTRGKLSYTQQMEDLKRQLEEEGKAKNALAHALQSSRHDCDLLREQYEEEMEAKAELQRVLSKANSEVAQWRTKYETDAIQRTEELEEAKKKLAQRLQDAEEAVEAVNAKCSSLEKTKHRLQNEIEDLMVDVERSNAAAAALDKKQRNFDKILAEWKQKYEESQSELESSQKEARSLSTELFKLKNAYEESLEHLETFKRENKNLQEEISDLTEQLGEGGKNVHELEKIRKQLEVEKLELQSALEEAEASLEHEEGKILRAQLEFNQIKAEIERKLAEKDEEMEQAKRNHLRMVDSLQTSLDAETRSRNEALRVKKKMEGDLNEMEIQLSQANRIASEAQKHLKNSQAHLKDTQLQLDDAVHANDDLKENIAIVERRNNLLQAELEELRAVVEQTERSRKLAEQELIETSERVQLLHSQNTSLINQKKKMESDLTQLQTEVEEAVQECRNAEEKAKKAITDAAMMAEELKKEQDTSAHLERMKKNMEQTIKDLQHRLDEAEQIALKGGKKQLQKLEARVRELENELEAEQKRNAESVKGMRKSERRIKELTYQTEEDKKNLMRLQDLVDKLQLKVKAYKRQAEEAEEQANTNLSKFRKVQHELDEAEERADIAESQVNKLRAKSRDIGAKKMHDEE
UniProt Q5SX39: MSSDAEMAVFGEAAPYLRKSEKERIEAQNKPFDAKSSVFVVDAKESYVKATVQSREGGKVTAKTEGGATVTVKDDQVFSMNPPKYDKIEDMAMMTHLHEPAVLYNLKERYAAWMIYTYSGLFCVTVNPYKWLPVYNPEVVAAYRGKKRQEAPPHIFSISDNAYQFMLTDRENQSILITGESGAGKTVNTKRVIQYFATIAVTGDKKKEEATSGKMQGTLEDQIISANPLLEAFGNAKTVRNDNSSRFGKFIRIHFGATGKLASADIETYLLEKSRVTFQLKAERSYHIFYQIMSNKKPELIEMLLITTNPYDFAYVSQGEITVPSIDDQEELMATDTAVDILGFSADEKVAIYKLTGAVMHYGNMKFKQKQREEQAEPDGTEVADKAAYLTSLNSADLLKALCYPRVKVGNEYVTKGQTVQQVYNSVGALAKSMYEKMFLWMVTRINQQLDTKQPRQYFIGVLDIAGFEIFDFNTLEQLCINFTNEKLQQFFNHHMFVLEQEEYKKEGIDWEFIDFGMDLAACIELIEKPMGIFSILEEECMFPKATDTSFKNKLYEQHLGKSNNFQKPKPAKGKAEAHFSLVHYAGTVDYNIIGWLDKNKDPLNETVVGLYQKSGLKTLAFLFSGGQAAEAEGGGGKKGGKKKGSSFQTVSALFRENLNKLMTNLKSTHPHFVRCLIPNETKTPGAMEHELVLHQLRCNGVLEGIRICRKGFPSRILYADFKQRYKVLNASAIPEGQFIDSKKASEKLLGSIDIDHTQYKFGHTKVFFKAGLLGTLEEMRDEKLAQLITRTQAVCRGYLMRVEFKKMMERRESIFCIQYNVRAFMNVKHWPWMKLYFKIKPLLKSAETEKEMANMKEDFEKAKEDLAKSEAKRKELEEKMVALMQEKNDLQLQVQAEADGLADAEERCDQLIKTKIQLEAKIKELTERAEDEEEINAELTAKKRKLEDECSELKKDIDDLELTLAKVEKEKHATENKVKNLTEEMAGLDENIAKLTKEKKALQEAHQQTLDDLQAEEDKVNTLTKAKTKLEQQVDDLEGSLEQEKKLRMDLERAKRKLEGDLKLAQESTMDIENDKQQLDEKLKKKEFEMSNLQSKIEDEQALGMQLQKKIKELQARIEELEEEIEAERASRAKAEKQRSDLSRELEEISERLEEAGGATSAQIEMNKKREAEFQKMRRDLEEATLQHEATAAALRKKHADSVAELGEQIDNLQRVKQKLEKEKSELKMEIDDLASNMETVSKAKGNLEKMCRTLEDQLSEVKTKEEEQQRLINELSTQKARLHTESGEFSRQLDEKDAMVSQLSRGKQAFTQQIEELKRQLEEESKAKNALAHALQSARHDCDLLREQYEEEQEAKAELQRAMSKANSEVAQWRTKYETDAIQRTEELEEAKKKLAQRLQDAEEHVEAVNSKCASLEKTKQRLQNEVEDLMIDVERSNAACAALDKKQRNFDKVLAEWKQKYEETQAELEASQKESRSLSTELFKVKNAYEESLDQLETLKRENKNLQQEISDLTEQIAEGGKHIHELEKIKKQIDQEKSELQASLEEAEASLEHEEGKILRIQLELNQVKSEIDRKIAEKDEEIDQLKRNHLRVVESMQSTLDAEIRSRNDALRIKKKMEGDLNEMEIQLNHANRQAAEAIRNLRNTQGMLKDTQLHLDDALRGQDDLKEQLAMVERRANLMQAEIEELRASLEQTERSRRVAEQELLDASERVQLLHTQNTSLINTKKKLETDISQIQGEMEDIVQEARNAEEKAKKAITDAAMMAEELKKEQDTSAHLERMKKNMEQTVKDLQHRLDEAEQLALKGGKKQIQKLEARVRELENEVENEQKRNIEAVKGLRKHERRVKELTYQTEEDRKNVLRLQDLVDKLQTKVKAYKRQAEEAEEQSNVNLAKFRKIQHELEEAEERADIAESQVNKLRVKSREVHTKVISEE

B1: tRNA wybutosin-synthesizing protein 3 homolog (enzyme, UniProt Q8BSA9 1-257)
chain: MDRSAEFGRWKAQSLSKADLSRKGSVDEDAVEVVELLNSREEFFTTSSCAGRILLLDGSTEGSGVQKQHCCWLLVTHKPCARDDVMAALKGATSEAVLKFEPFILHVQCRTLQDAQTLHSVAIDSGFRNSGITVGKRGKTMLAVRGTHGLEVPLTHKGKLMVTEEYIEFLLTIANQKMEENKRRIGRFYNYLQHALKRETISNSHSKIKERNNPLCTHKNRRSQGKAQGPSTTEDNGRELEDGDGLEISAALFLGDD
B2: Alpha-crystallin B (protein, UniProt P23927 1-175)
chain: MDIAIHHPWIRRPFFPFHSPSRLFDQFFGEHLLESDLFSTATSLSPFYLRPPSFLRAPSWIDTGLSEMRLEKDRFSVNLDVKHFSPEELKVKVLGDVIEVHGKHEERQDEHGFISREFHRKYRIPADVDPLTITSSLSSDGVLTVNGPRKQVSGPERTIPITREEKPAVAAAPKK
B3: Transformer-2 protein homolog α (protein, UniProt Q6PFR5 1-281)
chain: MSDVEENNFEGRESRSQSKSPTGTPARVKSESRSGSRSPSRVSKHSESHSRSRSKSRSRSRRHSHRRYTRSRSHSHRRRSRSRSYTPEYRRRRSRSHSPMSNRRRHTGSRANPDPNTCLGVFGLSLYTTERDLREVFSRYGPLSGVNVVYDQRTGRSRGFAFVYFERIDDSKEAMERANGMELDGRRIRVDYSITKRAHTPTPGIYMGRPTHSGGGGGGGGGGGGGGGGGGGRRRDSYYDRGYDRGYDRYEDYDYRRRSPSPYYSRYRSRSRSRSYSPRRY
B4: Isocitrate dehydrogenase [NAD] α (enzyme, UniProt Q9D6R2 28-366)
chain: AGGVQTVTLIPGDGIGPEISASVMKIFDAAKAPIQWEERNVTAIQGPGGKWMIPPEAKESMDKNKMGLKGPLKTPIAAGHPSMNLLLRKTFDLYANVRPCVSIEGYKTPYTDVNIVTIRENTEGEYSGIEHVIVDGVVQSIKLITEEASKRIAEFAFEYARNNHRSNVTAVHKANIMRMSDGLFLQKCREVAENCKDIKFNEMYLDTVCLNMVQDPSQFDVLVMPNLYGDILSDLCAGLIGGLGVTPSGNIGANGVAIFESVHGTAPDIAGKDMANPTALLLSAVMMLRHMGLFDHAAKIEAACFATIKDGKSLTKDLGGNAKCSDFTEEICRRVKDLD
B5: Phosphate carrier (protein, UniProt Q8VEM8 46-357)
chain: AVEEYSCEFGSMKYYALCGFGGVLSCGLTHTAVVPLDLVKCRMQVDPQKYKGIFNGFSITLKEDGVRGLAKGWAPTLIGYSMQGLCKFGFYEVFKALYSNILGEENTYLWRTSLYLASSASAEFFADIALAPMEAAKVRIQTQPGYANTLREAVPKMYKEEGLNAFYKGVAPLWMRQIPYTMMKFACFERTVEALYKFVVPKPRSECTKAEQLVVTFVAGYIAGVFCAIVSHPADSVVSVLNKEKGSTASQVLQRLGFRGVWKGLFARIIMIGTLTALQWFIYDSVKVYFRLPRPPPPEMPESLKKKLGLTE
B6: Succinyl-CoA ligase [ADP-forming] β (enzyme, UniProt Q9Z2I9 54-463)
chain: SLHEYLSMELLQEAGVSVPKGFVAKSSDEAYAIAKKLGSKDVVIKAQVLAGGRGKGTFTSGLKGGVKIVFSPEEAKAVSSQMIGQKLITKQTGEKGRICNQVLVCERKYPRREYYFAITMERSFQGPVLIGSAQGGVNIEDVAAENPEAIVKEPIDIVEGIKKEQAVTLAQKMGFPSNIVDSAAENMIKLYNLFLKYDATMVEINPMVEDSDGKVLCMDAKINFDSNSAYRQKKIFDLQDWSQEDERDKEAANADINYIGLDGSIGCLVNGAGLAMATMDIIKLHGGTPANFLDVGGGATVQQVTEAFKLITSDKKVQAILVNIFGGIMRCDVIAQGIVMAVKDLEIRIPVVVRLQGTRVDDAKALIADSGLKILACDDLDEAAKMVVKLSEIVTLAKEAHVDVKFQLPI
B7: Aconitate hydratase (enzyme, UniProt Q99KI0 28-780)
chain: QRAKVAMSHFEPSEYIRYDLLEKNINIVRKRLNRPLTLSEKIVYGHLDDPANQEIERGKTYLRLRPDRVAMQDATAQMAMLQFISSGLPKVAVPSTIHCDHLIEAQVGGEKDLRRAKDINQEVYNFLATAGAKYGVGFWRPGSGIIHQIILENYAYPGVLLIGTDSHTPNGGGLGGICIGVGGADAVDVMAGIPWELKCPKVIGVKLTGSLSGWTSPKDVILKVAGILTVKGGTGAIVEYHGPGVDSISCTGMATICNMGAEIGATTSVFPYNHRMKKYLSKTGRTDIANLAEEFKDHLVPDPGCQYDQVIEINLNELKPHINGPFTPDLAHPVADVGTVAEKEGWPLDIRVGLIGSCTNSSYEDMGRSAAVAKQALAHGLKCKSQFTITPGSEQIRATIERDGYAQILRDVGGIVLANACGPCIGQWDRKDIKKGEKNTIVTSYNRNFTGRNDANPETHAFVTSPEIVTALAIAGTLKFNPETDFLTGKDGKKFKLEAPDADELPRSDFDPGQDTYQHPPKDSSGQRVDVSPTSQRLQLLEPFDKWDGKDLEDLQILIKVKGKCTTDHISAAGPWLKFRGHLDNISNNLLIGAINIENGKANSVRNAVTQEFGPVPDTARYYKKHGIRWVVIGDENYGEGSSREHAALEPRHLGGRAIITKSFARIHETNLKKQGLLPLTFADPSDYNKIHPVDKLTIQGLKDFAPGKPLKCVIKHPNGTQETILLNHTFNETQIEWFRAGSALNRMKELQQ

Each molecule was assayed against glyceraldehyde-3-phosphate dehydrogenase (mouse (endogenous in heart)) (UniProt P16858) (assay: affinity purification with mass spectrometry; cytosolic fraction of Langendorff-perfused mouse hearts (control perfusion or 100 µmol/L GSNO for 30 minutes); GAPDH antibody-coupled agarose resin, overnight at 4°C, HEN buffer with 2.5% SDS; IgG-coupled resin as negative control; LC-MS/MS).

binding, binds:
Tubulin-α-1C (from UniProt P68373 1-449)
Tubulin β-6 (from UniProt Q922F4 1-447)
Tubulin β-2C chain (from UniProt P68372 1-445)
B1
B2
B3

What follows are molecules tested against glyceraldehyde-3-phosphate dehydrogenase (mouse (endogenous in heart)) (UniProt P16858) (assay: affinity purification with mass spectrometry; mitochondrial fraction of Langendorff-perfused mouse hearts (control perfusion or 100 µmol/L GSNO for 30 minutes); GAPDH antibody-coupled agarose resin, overnight at 4°C, HEN buffer with 2.5% SDS; IgG-coupled resin as negative control; LC-MS/MS).

binding, binds:
60 kDa heat shock protein (from UniProt P63038 27-573)
Cytochrome C oxidase 6C (from UniProt Q9CPQ1 1-76)
Myosin-6 (from UniProt Q02566 1-1938)
Myosin4 (from UniProt Q5SX39 1-1939)
B4
B5
B6
B7
